Reference: article PMC8385080
Results are given in words; binding and its absence hold for the method and conditions named. In cells and extracts the contact can be indirect. Some binding calls cover weakened binding; strength is not graded here.

Amino acid sequences for entries named in this document (tags omitted). Residues count along the entry.
UniProt P30530, residues 26-894: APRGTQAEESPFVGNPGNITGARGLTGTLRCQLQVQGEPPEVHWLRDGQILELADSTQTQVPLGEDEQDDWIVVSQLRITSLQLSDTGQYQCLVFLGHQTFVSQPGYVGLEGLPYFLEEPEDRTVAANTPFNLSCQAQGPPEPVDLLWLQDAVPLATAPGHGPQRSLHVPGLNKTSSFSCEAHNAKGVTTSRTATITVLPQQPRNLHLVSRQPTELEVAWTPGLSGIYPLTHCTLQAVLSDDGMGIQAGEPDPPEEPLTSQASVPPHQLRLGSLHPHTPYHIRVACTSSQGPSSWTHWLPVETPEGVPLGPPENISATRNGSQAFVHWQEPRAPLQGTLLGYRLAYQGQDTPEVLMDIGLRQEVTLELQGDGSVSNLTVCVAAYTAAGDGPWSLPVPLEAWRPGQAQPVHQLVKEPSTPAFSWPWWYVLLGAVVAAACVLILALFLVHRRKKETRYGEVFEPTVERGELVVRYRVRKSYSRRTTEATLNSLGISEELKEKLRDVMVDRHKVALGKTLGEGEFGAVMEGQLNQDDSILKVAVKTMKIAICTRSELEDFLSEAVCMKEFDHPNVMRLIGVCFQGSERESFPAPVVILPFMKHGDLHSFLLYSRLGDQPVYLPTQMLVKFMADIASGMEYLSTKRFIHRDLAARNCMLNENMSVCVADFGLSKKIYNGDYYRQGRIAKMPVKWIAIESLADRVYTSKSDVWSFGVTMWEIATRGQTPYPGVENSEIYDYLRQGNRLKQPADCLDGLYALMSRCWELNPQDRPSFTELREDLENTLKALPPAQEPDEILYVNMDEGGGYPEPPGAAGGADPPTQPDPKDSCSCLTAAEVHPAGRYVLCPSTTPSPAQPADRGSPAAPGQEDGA
UniProt Q13873, residues 27-1038: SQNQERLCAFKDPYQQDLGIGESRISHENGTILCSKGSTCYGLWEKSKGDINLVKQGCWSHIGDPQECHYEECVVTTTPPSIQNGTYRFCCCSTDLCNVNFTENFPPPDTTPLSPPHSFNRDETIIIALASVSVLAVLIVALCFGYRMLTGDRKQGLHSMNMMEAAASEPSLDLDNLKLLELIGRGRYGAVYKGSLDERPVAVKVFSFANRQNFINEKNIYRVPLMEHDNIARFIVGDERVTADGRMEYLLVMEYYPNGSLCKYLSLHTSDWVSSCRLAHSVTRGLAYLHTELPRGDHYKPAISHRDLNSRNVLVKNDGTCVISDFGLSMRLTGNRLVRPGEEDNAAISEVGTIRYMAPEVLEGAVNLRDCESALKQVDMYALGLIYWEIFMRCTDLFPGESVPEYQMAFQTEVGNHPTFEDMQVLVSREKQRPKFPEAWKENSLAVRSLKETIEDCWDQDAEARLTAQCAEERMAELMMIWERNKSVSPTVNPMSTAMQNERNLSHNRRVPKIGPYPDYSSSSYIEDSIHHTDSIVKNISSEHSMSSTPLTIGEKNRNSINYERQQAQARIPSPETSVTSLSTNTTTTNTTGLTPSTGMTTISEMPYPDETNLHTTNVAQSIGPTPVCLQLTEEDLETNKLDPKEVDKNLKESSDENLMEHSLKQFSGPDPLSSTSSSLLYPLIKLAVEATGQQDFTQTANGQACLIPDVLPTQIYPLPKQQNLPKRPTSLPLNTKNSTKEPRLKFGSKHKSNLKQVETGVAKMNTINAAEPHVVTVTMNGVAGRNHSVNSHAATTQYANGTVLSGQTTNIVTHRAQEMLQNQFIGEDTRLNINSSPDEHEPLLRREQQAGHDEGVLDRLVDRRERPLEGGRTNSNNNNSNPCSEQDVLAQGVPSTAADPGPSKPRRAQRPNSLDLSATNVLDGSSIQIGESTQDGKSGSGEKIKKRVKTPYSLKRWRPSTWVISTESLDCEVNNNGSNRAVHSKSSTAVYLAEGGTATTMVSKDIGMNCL

Key:
Flag-Axl = Flag-Axl (UniProt P30530); assay: co-IP; HEK293 cells co-transfected with AXL-FLAG and BMPR2-Myc, lysed 24 h after transfection in IP lysis buffer; IP with FLAG antibody or with BMPR2 antibody, protein A/G agarose, overnight at 4 °C; western blot
BMPR2-Myc = BMPR2-Myc (UniProt Q13873); assay: as above
[1] = molecular target: endogenous BMPR2 (human (endogenous in hPAECs)) (UniProt Q13873); assay: proximity ligation; Duolink PLA of Axl and BMPR2 in hPAECs, basal (DMSO) and after BMP9/Gas6 stimulation
[2] = molecular target: endogenous BMPR2 (human (endogenous in hPAECs)) (UniProt Q13873); assay: co-IP; hPAEC lysate (IP lysis buffer); IP with BMPR2 antibody, IgG1 as negative control; western blot for Axl; also after 48 h of BMP9/Gas6 stimulation

“BMPR2-Myc (from UniProt Q13873 27-1038) (receptor)” was tested, and the binding (Flag-Axl) was “binds”.
In the case of “Flag-Axl (from UniProt P30530 26-894) (receptor)”, the binding (BMPR2-Myc) was “binds”.
For “endogenous Axl (from UniProt P30530 26-894) (receptor)”, the binding [1] was “binds” and the binding [2] was “binds”.
